Assay results: PubChem BioAssay AID743255 (National Center for Advancing Translational Sciences (NCATS), 2014)
Among all 390,000 compounds or so, about 910 (0.23%) were called active. Inconclusive means that the source gave no clear call. Such entries were picked first, then a sample of the others. The call rests on the fitted dose curve; in most records, active means well fitted inhibition curve with a large enough effect; inconclusive means small, poorly fitted or top-dose-only effect; inactive means no such curve, though single readings can be large or run the other way. A potency beside an inconclusive call is a rough fit, not a confirmed value.
Further: nearly all actives have a fitted effect of over 60% in size.
On the % scale 0 is the no-effect control and ±100 the full control effect; potency means the concentration at half of the fitted maximal effect.

Protein sequences, listed by entry. Tags and fused reporters are not part of them. Lines headed by an entry give the natural chain unless they say otherwise; changes in a name come on top.
UniProt O94782: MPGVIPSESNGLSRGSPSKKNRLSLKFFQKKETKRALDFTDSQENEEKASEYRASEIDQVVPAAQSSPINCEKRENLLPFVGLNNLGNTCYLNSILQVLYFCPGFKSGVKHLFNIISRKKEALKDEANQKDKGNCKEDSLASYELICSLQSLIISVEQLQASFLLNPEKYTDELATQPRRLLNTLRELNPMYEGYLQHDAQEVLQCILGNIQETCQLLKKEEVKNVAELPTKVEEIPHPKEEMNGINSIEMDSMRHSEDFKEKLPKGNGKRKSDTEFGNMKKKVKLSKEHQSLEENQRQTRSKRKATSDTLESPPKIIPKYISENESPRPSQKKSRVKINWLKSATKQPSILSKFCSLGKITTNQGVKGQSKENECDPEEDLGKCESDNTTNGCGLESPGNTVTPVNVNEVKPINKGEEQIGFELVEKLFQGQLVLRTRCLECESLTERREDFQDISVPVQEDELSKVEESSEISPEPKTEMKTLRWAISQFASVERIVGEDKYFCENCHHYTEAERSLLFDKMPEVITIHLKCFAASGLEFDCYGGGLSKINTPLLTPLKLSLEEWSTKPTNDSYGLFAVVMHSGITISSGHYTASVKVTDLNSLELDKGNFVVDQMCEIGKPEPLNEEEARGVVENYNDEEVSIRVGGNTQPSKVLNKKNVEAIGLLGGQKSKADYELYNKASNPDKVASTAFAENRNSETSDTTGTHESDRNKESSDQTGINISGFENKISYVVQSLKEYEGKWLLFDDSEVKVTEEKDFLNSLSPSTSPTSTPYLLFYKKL

The molecules below were run against Ubiquitin carboxyl-terminal hydrolase 1 (Homo sapiens) (UniProt O94782) (assay: Inhibitors of USP1/UAF1: Primary Screen). Conditions: recombinant USP1/UAF1, Ub-Rhodamine cleavage fluorescence; activity change, negative = inhibition: at 57.1 µM (top of the series).
In short: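 In this screen, compounds sit with the deubiquitinase complex (1nM) for 15 min at room temperature before Ub-Rho is added at 150nM final. Fluorescence rise is then followed for 6 reads every 60 seconds.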
`NS(=O)(=O)c1ccc(CCNC(=O)CCCCCn2c(=O)[nH]c3ccccc3c2=O)cc1` was tested, and the Potency was inconclusive: 5.62 µM [inhibitor, full curve]. In the case of `O=C(O)C1CCCCC1C(=O)Nc1cccc(Br)c1` (configuration not stated), the Potency was inconclusive: 2.82 µM [inhibitor, full curve, poor fit]. With `CCN(CC)C(=O)Cc1c(OC)ccc2cc(Br)ccc12` the Potency was inconclusive: 35.5 µM [inhibitor, partial curve]. For `Cn1c(=O)cc(OCC(=O)NCCCN2CCN(Cc3ccccc3)CC2)c2ccccc21`, the “activity change, negative = inhibition” value was inactive: -21.8%. For `CCCCCC1CC(CC(=O)NC(=S)Nc2ccccc2Cl)C(=O)O1` (configuration not stated), the Potency was inconclusive: 70.8 µM [inhibitor, partial curve, poor fit]. For `Fc1ccc(-n2cc(-c3ccccc3)c3c(NCCc4ccccc4)ncnc32)cc1`, the “activity change, negative = inhibition” value was inactive: 8.23%. In the case of `COc1ccc(C2c3c(oc4ccc(C)cc4c3=O)C(=O)N2CCCN2CCOCC2)cc1OC` (configuration not stated), the Potency was inconclusive: 17.8 µM [inhibitor, partial curve, poor fit]. In the case of `COc1ccc(O)cc1`, the “activity change, negative = inhibition” value was inactive: 15.9%. `Clc1cccc(-n2cc(-c3ccccc3)c3c(N4CCCCC4)ncnc32)c1` was tested, and the Potency was inconclusive: 7.94 µM [inhibitor, partial curve]. For `O=c1oc2ccccc2nc1/C=C(O)/C=C/c1ccc(F)cc1`, the Potency was inconclusive: 0.282 µM [inhibitor, full curve, poor fit]. `CCCn1c(SCC(=O)NCC2CCCO2)nc2c1c(=O)n(C)c(=O)n2C` (configuration not stated) was tested, and the “activity change, negative = inhibition” value was inactive: -9.81%. In the case of `COCCN(C(=O)COC(=O)CCC1CCCCC1)c1c(N)n(Cc2ccccc2)c(=O)[nH]c1=O`, the Potency was inconclusive: 0.447 µM [inhibitor, full curve, poor fit]. For `CCN(Cc1ccccc1)C(=O)CCc1c(C)nc2c(c(C)nn2-c2ccc(C)c(C)c2)c1C`, the Potency was inconclusive: 10 µM [inhibitor, single point]. With `CCc1ccc([C@@H]2CC=C(C(=O)O)[C@H](c3ccc(C(C)(C)C)cc3)N2S(=O)(=O)c2ccc(C)cc2)cc1` the Potency was inconclusive: 39.8 µM [inhibitor, partial curve, poor fit]. `OC(c1nc2ccccc2[nH]1)C(O)c1nc2ccccc2[nH]1` (configuration not stated) was tested, and the “activity change, negative = inhibition” value was inactive: -2.47%. For `O=C1NC2(CCCCCC2)C(=O)N1Cc1c(F)cccc1Cl`, the Potency was inconclusive: 22.4 µM [inhibitor, partial curve, poor fit]. With `Cc1ccc(NC(=O)CCCn2c(=O)c3cccn3c3ccccc32)c(C)c1` the Potency was inconclusive: 0.562 µM [inhibitor, full curve, poor fit]. For `CC1(c2nnc(-c3cccc(Cl)c3)o2)CC(c2ccc(OC(F)(F)F)cc2)=NO1` (configuration not stated), the Potency was inconclusive: 70.8 µM [inhibitor, partial curve, poor fit]. `Cc1c(C)c2c(OCC(=O)N3CCC(C(=O)NCC(C)C)CC3)cc3c(c2oc1=O)CCC(C)(C)O3` was tested, and the “activity change, negative = inhibition” value was inactive: -5.86%. With `CCN1CCC2(CC1)N=C(c1ccc(F)cc1)C(=S)N2C(=O)c1ccc(C)cc1` the Potency was inconclusive: 25.1 µM [inhibitor, single point]. With `CCC1(CC)C(=O)N(c2ccccc2)C(=N)N(c2ccccc2)C1=O` the Potency was inconclusive: 15.8 µM [inhibitor, partial curve]. With `N#C/C(=C\c1ccc(N2CCOCC2)o1)C(=O)NC1CCCCC1` the Potency was inconclusive: 35.5 µM [inhibitor, partial curve]. In the case of `O=C(COC(=O)c1ccc([N+](=O)[O-])s1)NCc1ccc(F)cc1`, the Potency was inconclusive: 28.2 µM [inhibitor, partial curve]. For `CCCCC(=O)Nc1ccc(C(=O)Nc2ccc3c(c2)OCO3)cc1`, the Potency was inconclusive: 1.12 µM [inhibitor, full curve]. For `CCCc1[nH][nH]c(=O)c1C(c1cccc(Cl)c1)C(C#N)C#N` (configuration not stated), the “activity change, negative = inhibition” value was inactive: -10.7%. For `Cc1nc2ccc(F)cc2cc1C(=O)NC(C)C`, the Potency was inconclusive: 35.5 µM [inhibitor, partial curve, poor fit]. In the case of `Cc1cc(C(F)F)n2nc(C(=O)Nc3cccc(Cl)c3C)nc2n1`, the “activity change, negative = inhibition” value was inactive: -25.9%. `Cc1ccn(S(=O)(=O)c2ccc(C(C)(C)C)cc2)n1` was tested, and the “activity change, negative = inhibition” value was inactive: -13.4%. For `COc1ccc2nc(N3CCC(O)CC3)c(C#N)cc2c1`, the Potency was inconclusive: 31.6 µM [inhibitor, partial curve]. In the case of `CCOCCCNc1nc(-c2ccccc2)nc2ccccc12`, the Potency was inconclusive: 39.8 µM [inhibitor, partial curve]. In the case of `CCN1C(N(C)C)=NC[C@@H]1Cc1ccccc1`, the Potency was inconclusive: 50.1 µM [inhibitor, partial curve, poor fit]. `CC(C)CN1CCC(=O)NC1=S` was tested, and the Potency was inconclusive: 50.1 µM [inhibitor, single point]. `Nc1nonc1C(=O)NCCNC(=O)c1ccc(Cl)c(Cl)c1` was tested, and the Potency was inconclusive: 39.8 µM [inhibitor, single point]. `Cc1ccccc1N(C)S(=O)(=O)c1nnc(NC(=O)c2ccccc2F)s1` was tested, and the Potency was inconclusive: 0.794 µM [inhibitor, full curve, poor fit]. In the case of `COc1cc(C#Cc2c(-c3cncn3C)n(C)c3ccc(Br)cc23)cc(OC)c1`, the Potency was inconclusive: 7.94 µM [inhibitor, partial curve]. `C=CCn1c(SCC(=O)NCCC2=CCCCC2)nc2ccc(Cl)cc2c1=O` was tested, and the “activity change, negative = inhibition” value was inactive: -1.52%. `NS(=O)(=O)c1ccc(Nc2ccc([N+](=O)[O-])c3nonc23)cc1` was tested, and the Potency was inconclusive: 44.7 µM [inhibitor, partial curve]. `CCOC(=O)c1c(C)c(C(=O)NCc2ccc(OC)cc2)c(C)n1CC` was tested, and the Potency was inconclusive: 15.8 µM [inhibitor, partial curve, poor fit]. In the case of `c1ccc2sc(NC3=NCN(CC4CCCO4)CN3)nc2c1` (configuration not stated), the Potency was inconclusive: 35.5 µM [inhibitor, partial curve, poor fit]. With `Nc1ccc(-c2c3ccc(=O)cc-3oc3cc(O)ccc23)cc1C(=O)O` the Potency was active: 22.4 µM. `O=C(c1ccc(=O)[nH]c1)N1CCN(S(=O)(=O)c2cc(C(F)(F)F)ccc2Cl)CC1` was tested, and the Potency was inconclusive: 2 µM [inhibitor, partial curve]. For `CCn1nc2cc(C(=O)NCc3cc(C(F)(F)F)cc(C(F)(F)F)c3)ccc2c1OC`, the Potency was inconclusive: 44.7 µM [inhibitor, partial curve, poor fit].
